From patent US9580749B2, “Dyes and labeled molecules” (Biotium, Inc., priority 2005, dated 2017)

Test system: salmon sperm DNA
Assay: Absorbance and fluorescence emission spectra of dyes without or with DNA in PBS buffer
Format: physicochemical
Procedure: The spectra were normalized to 1 in the absorbance plot. […] The heterodimeric dye AORO-7 comprises a monomeric AO dye and a fluorescent non-nucleic acid rosamine RO dye. Two emission peaks, contributed by AO and RO moieties, respectively, were recorded.

| SMILES | fluorescence per acridine monomer when bound to DNA (2 mg/ml salmon sperm DNA, PBS buffer) | background fluorescence and fluorescence upon binding to DNA, relative to monomeric DMAO (FIG. 4, PBS buffer before and after DNA addition) | fluorescence resonance energy transfer (FRET) effect (bound to DNA) |
| --- | --- | --- | --- |
| CN(C)c1ccc2cc3ccc(N(C)C)cc3[n+](CCCCCC(=O)NCCCCCNC(=O)CCCCC[n+]3c4cc(N(C)C)ccc4cc4ccc(N(C)C)cc43)c2c1 [AOAO-7] | close to that of DMAO | lower background fluorescence and higher fluorescence upon binding to DNA | – |
| CC1=CC(C)(C)Nc2cc3c(cc21)C(c1ccc(C(=O)NCCCCCC(=O)NCCCCCNC(=O)CCCCC[n+]2c4cc(N(C)C)ccc4cc4ccc(N(C)C)cc42)cc1)=c1cc2c(cc1O3)=NC(C)(C)C=C2C [AORO-7] | – | – | negligible |
